Consider one compound from paper PMC7616682 (Journal of biological inorganic chemistry : JBIC : a …, 2024).

≈ marks a conversion by molar mass, not a printed value.

This assay deals with E. faecium ATCC 19434. Put plainly: MIC broth microdilution assay. The conditions noted are these: Enterococcus faecium, ATCC19434, 24 h, read-out: MIC E. faecium (Gram positive). The assay is classed as cell-based. Here is the method: Antibacterial activity assay […]
MIC broth microdilution assay
3 × 125 mL Erlenmeyer flasks, each filled with 12.5 mL MHBII, were inoculated with three different colonies of S. aureus NTCC 12973. 3 × 125 mL Erlenmeyer flasks, each filled with 12.5 mL BHI broth, were inoculated with three different colonies of E. faecium ATCC 19434. The cultures were incubated at 37 °C with shaking at 180 rpm for 16 h.
OD600 of ~2.5. The suspensions of S. aureus cultures were diluted 100-fold with MHBII while the E. faecium cultures were diluted 4-fold. The resultant suspensions were incubated for a further 3 h at 37 °C with shaking. […]
after 3 h. Stock solutions of the title compounds were prepared in the requisite broth from 100 mM stocks in DMSO with the exception of carbenicillin, which was from a 100 mM stock in water and vancomycin from a 10 mM stock in DMSO. 15 × 96 well plates were primed with concentration gradients of the analytes and carbenicillin as shown in Figure S60 for S. aureus. 15 × 96 well plates were primed with the concentration […]
μL per well of the relevant bacterial culture in the requisite broth to 100 μL per well.
Background: In broth dilution the organism is exposed to a series of concentrations in liquid medium.

On to `CN[C@H](CC(C)C)C(=O)N[C@H]1C(=O)N[C@@H](CC(N)=O)C(=O)N[C@H]2C(=O)N[C@H]3C(=O)N[C@H](C(=O)N[C@H](C(=O)O)c4cc(O)cc(O)c4-c4cc3ccc4O)[C@H](O)c3ccc(c(Cl)c3)Oc3cc2cc(c3O[C@@H]2O[C@H](CO)[C@@H](O)[C@H](O)[C@H]2O[C@H]2C[C@](C)(N)[C@H](O)[C@H](C)O2)Oc2ccc(cc2Cl)[C@H]1O` [Vancomycin, reference compound], for which the MIC is 0.5 µM (≈ 0.725 µg/mL).

One may read the MIC as the lowest concentration found to suppress growth.
